Data taken from the supplement of paper PMC3334620.
Whole data set: some 33,000 sequences, median “E-score (-0.5 to 0.5)” near -8e-05, cut for the highest 2% near 0.23. The list shows a part of the results.

target: T1, Nrg2 (UniProt P38082); assay: PBM E-score (8-mer binding enrichment) (E-score (-0.5 to 0.5)); higher = stronger / more preferred TF binding; details: protein concentration: 100 nM; construct: GST-full length
T1 sequence: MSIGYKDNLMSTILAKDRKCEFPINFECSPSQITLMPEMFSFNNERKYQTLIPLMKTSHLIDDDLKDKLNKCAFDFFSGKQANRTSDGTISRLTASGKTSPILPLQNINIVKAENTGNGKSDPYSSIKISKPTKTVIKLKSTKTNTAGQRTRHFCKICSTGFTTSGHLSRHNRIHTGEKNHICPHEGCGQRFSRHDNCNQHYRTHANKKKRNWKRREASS
Outline: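 Yeast transcription factors, full-length or as DNA-binding domains, were expressed with a GST tag using PURExpress in vitro transcription/translation. At about 100-200 nM they were applied to universal all-10-mer Agilent arrays, double-stranded by primer extension on fresh or once-stripped slides. Fluorescent anti-GST detected bound protein, and masliner normalised the scans. E-scores for ungapped eight-base words, pooled with reverse complements, came from the Universal PBM Analysis Suite.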

Row | Sequence | PBM E-score
1 | AGATCCAT | -0.0254
2 | GTGCCAAC | 0.0697
3 | CTGTTTCA | -0.0777
4 | ATGGGAGA | -0.168
5 | TAAACTTA | -0.0576
6 | AGGCGCGG | -0.0682
7 | GGAGAACC | -0.127
8 | ATCCCTGA | 0.256
9 | AGGGTCCC | 0.397
10 | CCGAAAAG | 0.0784
11 | GCGAAGCC | -0.184
12 | CTGTCTCA | 0.0324
13 | AGGGCCAC | -0.0634
14 | AGTGCGGA | 0.224
15 | CCGGCTCC | -0.159
16 | CAATATCC | 0.0332
17 | GTTCGACA | 0.204
18 | ACGTAATG | 0.0417
19 | AGCTTTGG | 0.0511
20 | AAACAGAT | -0.0424
21 | ATCTATCG | -0.0406
22 | AAGCCCCA | -0.116
23 | ATTTTCTG | 0.0465
24 | ACGGAGCT | -0.238
25 | AGCAAGTC | 0.0224

Row | Sequence | PBM E-score
26 | ATAACTGC | -0.054
27 | AACAGTAG | 0.0701
28 | CGCCCCTA | 0.215
29 | GTAACACA | 0.0499
30 | CGGACTGA | -0.143
31 | CGTACTGA | 0.149
32 | CAAGAGAA | 0.232
33 | ACGACGTC | -0.0396
34 | CGATCGGC | 0.149
35 | GGACTAAA | -0.0147
36 | AATCAGAG | 0.0409
37 | AAAGTCGC | 0.0396
38 | ATGGGCAG | 0.128
39 | CCAAACGA | 0.0394
40 | CCCGAAGA | -0.119
41 | TACGGCCA | -0.0878
42 | GCGAGAAC | 0.196
43 | AGTCGACC | -0.0853
44 | GCATCCGA | -0.153
45 | CGGCTTTA | -0.127
46 | GCCCCGCA | -0.112
47 | ACAGCACA | 0.0761
48 | ACCTGTCT | -0.0384
49 | AACTAACG | 0.05
50 | ATCTGTAA | -0.0984

Row | Sequence | PBM E-score
51 | ACTTAGCT | -0.202
52 | CAATTGAG | 0.134
53 | CTGCTTGC | 0.00199
54 | GCCTAGGA | -0.231
55 | ACACCCCG | -0.0934
56 | GCTAAGTA | 0.0538
57 | CCTTTGCA | 0.0126
58 | AGCGGCCT | -0.275
59 | AGCTGACA | -0.0361
60 | CCGTATTC | -0.0915
61 | ACGCTCGA | -0.195
62 | GCTGCGCA | -0.0835
63 | AGTTGTAG | 0.126
64 | ACAAGGGA | -0.0167
65 | AGTAAGAG | -0.0249
66 | TAAACTGA | 0.114
67 | AACATAGG | 0.0699
68 | CACACCGC | -0.0842
69 | GCGTCACA | 0.0739
70 | CCTCCAAA | -0.0762
71 | ACGTCGGC | -0.00351
72 | ACCGCACA | 0.0729
73 | AAAGGCTA | -0.0442
74 | ACCTATTC | -0.0957
75 | AAATCGGA | 0.0244

Row | Sequence | PBM E-score
76 | GTCATTGA | 0.0201
77 | GATTCTAA | -0.063
78 | AAGTCCGG | -0.0623
79 | AGGTCTAA | -0.0895
80 | ACATGCCC | -0.132
81 | ACAATCGC | 0.0957
82 | CCCGTAGA | -0.319
83 | ACCACGGT | -0.279
84 | CAAGTCCG | 0.00938
85 | AAATATGT | 0.113
86 | AAAATACT | -0.0205
87 | ATATTCAG | 0.116
88 | ATGAGTCA | -0.0267
89 | CCCACCAG | -0.118
90 | ACGGGACG | 0.0144
91 | AATCAGGG | 0.0765
92 | GTCAGCGA | 0.00889
93 | GCACCCCA | 0.2
94 | ATGAATTG | 0.179
95 | TGTGAACA | -0.0105
96 | TACGTAAA | -0.176
97 | GTCGACAC | -0.0901
98 | CATCGTAC | 0.0203
99 | CGGGTCAA | -0.0478
100 | CACCTTAA | 0.11

Row | Sequence | PBM E-score
101 | GTGTTGGA | 0.0641
102 | TGGTCAAA | 0.109
103 | CCAGCCCC | -0.00105
104 | AATTATGG | 0.0237
105 | GAGAGGGA | -0.231
106 | ATCCCTAC | 0.161
107 | CAATAGAC | 0.18
108 | AGCTAACA | -0.0582
109 | CCGTTAGG | -0.0482
110 | AGGCCAAT | 0.0662
111 | ACATCCCA | 0.00386
112 | GACGCCCA | 0.00228
113 | AAGGCGTG | -0.0825
114 | CGACCCTC | -0.165
115 | GGCTTTGA | 0.051
116 | AACTAAGG | 0.0414
117 | CTAATAAA | 0.259
118 | GAGAAGCA | -0.00086
119 | AGGCGAAC | 0.0815
120 | CAAGCTAG | -0.1
121 | CGCGACGA | 0.176
122 | AGAGTAGA | 0.0687
123 | AGGTCGCC | -0.0641
124 | CAAACACA | 0.177
125 | CACGTTCC | -0.0446

Row | Sequence | PBM E-score
126 | ATGAAGCG | -0.153
127 | CATCTAGC | 0.0205
128 | ACCGGTTC | -0.284
129 | CATCCGCA | 0.0851
130 | CGACGACG | -0.0361
131 | CTTTATTA | 0.121
132 | TGGGTCAA | -0.00067
133 | AGGCAAGA | -0.0756
134 | AAACTTAT | 0.168
135 | ACTCGCGC | 0.0455
136 | ATCTCTTC | 0.0869
137 | GAGAGTTA | -0.102
138 | CGAAAATA | 0.0971
139 | CCATTACC | -0.0545
140 | AGATCAGC | 0.0597
141 | AATTTATG | 0.18
142 | GATTTTGA | 0.114
143 | CACGGCCG | 0.0265
144 | CATACGCA | 0.0189
145 | AGGACGAC | -0.142
146 | GTTGATGA | 0.0639
147 | ACTCATGA | 0.143
148 | CATTCTCA | 0.195
149 | TATATAAA | 0.2
150 | ACCTCACC | -0.0428

A different layout for part of the listing above.

| Row | Sequence | PBM E-score |
| --- | --- | --- |
| 96 | TACGTAAA | -0.176 |
| 97 | GTCGACAC | -0.0901 |
| 98 | CATCGTAC | 0.0203 |
| 99 | CGGGTCAA | -0.0478 |
| 100 | CACCTTAA | 0.11 |
| 101 | GTGTTGGA | 0.0641 |
| 102 | TGGTCAAA | 0.109 |
| 103 | CCAGCCCC | -0.00105 |
| 104 | AATTATGG | 0.0237 |
| 105 | GAGAGGGA | -0.231 |
| 106 | ATCCCTAC | 0.161 |
| 107 | CAATAGAC | 0.18 |
| 108 | AGCTAACA | -0.0582 |
| 109 | CCGTTAGG | -0.0482 |
| 110 | AGGCCAAT | 0.0662 |
| 111 | ACATCCCA | 0.00386 |
| 112 | GACGCCCA | 0.00228 |
| 113 | AAGGCGTG | -0.0825 |
| 114 | CGACCCTC | -0.165 |
| 115 | GGCTTTGA | 0.051 |
| 116 | AACTAAGG | 0.0414 |
| 117 | CTAATAAA | 0.259 |
| 118 | GAGAAGCA | -0.00086 |
| 119 | AGGCGAAC | 0.0815 |
| 120 | CAAGCTAG | -0.1 |
| 121 | CGCGACGA | 0.176 |
| 122 | AGAGTAGA | 0.0687 |
| 123 | AGGTCGCC | -0.0641 |
| 124 | CAAACACA | 0.177 |
| 125 | CACGTTCC | -0.0446 |
| 127 | CATCTAGC | 0.0205 |
| 128 | ACCGGTTC | -0.284 |
| 129 | CATCCGCA | 0.0851 |
| 130 | CGACGACG | -0.0361 |
| 131 | CTTTATTA | 0.121 |
| 132 | TGGGTCAA | -0.00067 |
| 133 | AGGCAAGA | -0.0756 |
| 134 | AAACTTAT | 0.168 |
| 135 | ACTCGCGC | 0.0455 |
| 136 | ATCTCTTC | 0.0869 |
| 137 | GAGAGTTA | -0.102 |
| 138 | CGAAAATA | 0.0971 |
| 139 | CCATTACC | -0.0545 |
| 140 | AGATCAGC | 0.0597 |
| 141 | AATTTATG | 0.18 |
| 142 | GATTTTGA | 0.114 |
| 143 | CACGGCCG | 0.0265 |
| 144 | CATACGCA | 0.0189 |
| 145 | AGGACGAC | -0.142 |
| 147 | ACTCATGA | 0.143 |
| 148 | CATTCTCA | 0.195 |
| 149 | TATATAAA | 0.2 |

More results.

Row | Sequence | PBM E-score
151 | CCAATGGG | -0.23
152 | AGACCTTA | 0.00971
153 | TATAATAA | 0.169
154 | TTTCCAAA | -0.157
155 | AGATTACG | 0.121
156 | CGCTGTCA | -0.154
157 | ACCAGTTA | 0.106
158 | CCGTTTAA | 0.0881
159 | AGTGTCTC | 0.0365
160 | AATCCTCG | -0.00244
161 | ACAGACTC | -0.142
162 | GATGTTGC | 0.115
163 | ATATGGCA | 0.00508
164 | CACCCACG | 0.123
165 | GCTGCCAA | -0.122
166 | CACACAGG | 0.202
167 | AAATCGTA | 0.214
168 | GTGTGTGA | 0.0519
169 | ATGGCAAC | 0.112
170 | GAATGGTA | 0.133
171 | GTTCTTCA | 0.0896
172 | CACTGCAC | -0.0698
